# From PubChem BioAssay AID218 (DTP/NCI, 2004)
# The list does not hold the whole screen: it is rich in T/C values a quarter to a half above the control, in often repeated tests (any T/C) and in doses without a T/C. Further doses and runs are listed elsewhere. T/C gives the treated animals as a percentage of the vehicle group. Schedules are NCI's codes, taken here to give the interval after Q, in days (D) or hours (H), and the number of doses after X. Some T/C values are followed by the survivors on the day toxicity was checked, most often the fifth; where none is given, no animal had died by that day. Some entries were tested several times; the values are given in rising order. Counts like (3×) count equal records among those shown. Some entries give survivors of the animals treated and no T/C: the source files T/C as zero there, which appears to mark a toxic dose or a test without result, not a measured value. Counts of survivors are from the toxicity check (mostly the fifth day) where no day follows; animals may have died later. Some schedules carry Z or #; the key to these is not given.
# Test system: C57BL/6 mice, Adenocarcinoma 755 sc, tumor weight T/C
# Assay: NCI In Vivo Anticancer Drug Screen. Data for tumor model Adenocarcinoma 755 (subcutaneous) in C57BL/6 mice
# Settings: T/C endpoint: mean tumor weight, higher T/C = larger tumour; for T/C: evaluated on day 12
# Protocol: The antitumor activity of compounds was measured in mice bearing transplantable tumors. Survival or tumor size were measured and the results are expressed as the measurement made in the treated group (T) divided by the measurement made in the vehicle treated control group (C). The tumor model used in this assay is Adenocarcinoma 755 (subcutaneous) in C57BL/6 mice
# [1] = dose: 100.0 mg/kg/injection, schedule: Q01DX011 (ip), vehicle: carboxymethylcellulose (CMC)
# [2] = dose: 150.0 mg/kg/injection, schedule: Q01DX011 (ip), vehicle: carboxymethylcellulose (CMC)
# [3] = dose: 50.0 mg/kg/injection, schedule: Q01DX011 (ip), vehicle: carboxymethylcellulose (CMC)
# [4] = dose: 20.0 mg/kg/injection, schedule: Q01DX011 (ip), vehicle: saline
# [5] = dose: 75.0 mg/kg/injection, schedule: Q01DX011 (ip), vehicle: saline
# [6] = dose: 100.0 mg/kg/injection, schedule: Q01DX011 (ip), vehicle: saline
structure (smiles),measurement,setting,value
CN1c2ccc3ccccc3c2Sc2ccc3ccccc3c21,survivor count,"dose: 66.0 mg/kg/injection, schedule: Q01DX011 (ip), vehicle: carboxymethylcellulose (CMC)",4 of 10
same,survivor count,[1],5 of 10
same,survivor count,[2],0 of 10
same,survivor count,"dose: 225.0 mg/kg/injection, schedule: Q01DX011 (ip), vehicle: carboxymethylcellulose (CMC)",2 of 10
Cn1ncc2c(N)ncnc21,survivor count,"dose: 60.0 mg/kg/injection, schedule: Q02DX006 (ip), vehicle: other",5 of 10
Cc1ccc(N2CCN(CCCN3CCN(c4ccc(Cl)cc4)CC3)CC2)cc1,survivor count,[1],4 of 10
CCC(=O)c1cc2c(cc1CC)C(C)(C)CCC2(C)C,survivor count,[3],6 of 10
same,survivor count,[1],2 of 10
same,survivor count,"dose: 200.0 mg/kg/injection, schedule: Q01DX011 (ip), vehicle: carboxymethylcellulose (CMC)",1 of 10
same,survivor count,"dose: 400.0 mg/kg/injection, schedule: Q01DX011 (ip), vehicle: carboxymethylcellulose (CMC)",0 of 10
C[N+](C)(C)c1ncnc2nc[nH]c12,T/C,"dose: 20.0 mg/kg/injection, schedule: Q01DX006 (iv), vehicle: saline",131 % of control
same,survivor count,"dose: 40.0 mg/kg/injection, schedule: Q#A X022 (ip), vehicle: saline",6 of 10
same,survivor count,"dose: 80.0 mg/kg/injection, schedule: Q01DX011 (ip), vehicle: saline",5 of 10
same,survivor count,"dose: 160.0 mg/kg/injection, schedule: Q01DX011 (ip), vehicle: saline",4 of 10
same,survivor count,"dose: 160.0 mg/kg/injection, schedule: Q01DX011 (oral), vehicle: saline",2 of 10
same,survivor count,"dose: 240.0 mg/kg/injection, schedule: Q03DX004 (ip), vehicle: saline",1 of 10
same,survivor count,"dose: 320.0 mg/kg/injection, schedule: Q01DX011 (oral), vehicle: saline",0 of 10
same,survivor count,"dose: 600.0 mg/kg/injection, schedule: Q01DX001 (ip), vehicle: saline",0 of 10
same,survivor count,"dose: 640.0 mg/kg/injection, schedule: Q01DX011 (oral), vehicle: saline",2 of 10
Nc1c(Br)cc2c(c1Br)Cc1cc([N+](=O)[O-])ccc1-2,survivor count,"dose: 62.5 mg/kg/injection, schedule: Q01DX011 (ip), vehicle: saline",4 of 10
same,survivor count,"dose: 250.0 mg/kg/injection, schedule: Q01DX011 (ip), vehicle: saline",5 of 10
C=CC(CN1CC1)OC(C)=O (configuration not stated),survivor count,"dose: 2.0 mg/kg/injection, schedule: Q01DX011 (sc), vehicle: saline",6 of 10
same,survivor count,"dose: 4.0 mg/kg/injection, schedule: Q#A X022 (ip), vehicle: saline",6 of 10
same,survivor count,"dose: 8.0 mg/kg/injection, schedule: Q#A X022 (ip), vehicle: saline",2 of 10
same,survivor count,"dose: 15.0 mg/kg/injection, schedule: Q01DX011 (oral), vehicle: saline",4 of 12
c1ncc2[nH]cnc2n1,survivor count,"dose: 15.0 mg/kg/injection, schedule: Q01DX011 (ip), vehicle: saline",0 of 10
same,survivor count,[4],0 of 10
Nc1nc(=S)c2ncn(C3OC(COC(=O)c4ccccc4)C(OC(=O)c4ccccc4)C3OC(=O)c3ccccc3)c2[nH]1 (configuration not stated),survivor count,"dose: 50.0 mg/kg/injection, schedule: Q01DX011 (ip), vehicle: methylcellulose (MC)",3 of 10
CNC=O,T/C,[5],141 % of control
same,T/C,[6],129 % of control
S=c1nc[nH]c2nc[nH]c12,T/C,"dose: 0.5 mg/kg/injection, schedule: Q01DX011 (ip), vehicle: carboxymethylcellulose (CMC)","40, 41, 47 [9 of 10 alive], 52, 60, 77 % of control"
same,T/C,"dose: 1.0 mg/kg/injection, schedule: Q01DX011 (ip), vehicle: carboxymethylcellulose (CMC)","10 [8 of 10 alive], 15 (2×), 19, 24, 32 % of control"
same,T/C,"dose: 2.0 mg/kg/injection, schedule: Q01DX011 (ip), vehicle: carboxymethylcellulose (CMC)","2, 3, 4, 16, 17, 25 % of control"
same,T/C,"dose: 10.0 mg/kg/injection, schedule: Q01DX011 (ip), vehicle: saline","4, 5, 7, 7 % of control [9 of 10 alive]"
same,survivor count,"dose: 20.0 mg/kg/injection, schedule: Q01DX011 (ip), vehicle: carboxymethylcellulose (CMC)",3 of 10
same,T/C,[4],"1 [7 of 10 alive], 1 [9 of 10 alive], 2, 3 % of control [9 of 10 alive]"
same,survivor count,[4],6 of 10
same,survivor count,[3],0 of 10
same,survivor count,"dose: 80.0 mg/kg/injection, schedule: Q01DX011 (oral), vehicle: alkali diluted with saline",5 of 10
same,survivor count,"dose: 160.0 mg/kg/injection, schedule: Q01DX011 (oral), vehicle: alkali diluted with saline",2 of 10
same,survivor count,"dose: 640.0 mg/kg/injection, schedule: Q03DX004 (oral), vehicle: alkali diluted with saline",4 of 10
same,survivor count,"dose: 960.0 mg/kg/injection, schedule: Q07DX002 (oral), vehicle: alkali diluted with saline",3 of 10
CCCCNc1nc(N)nc2nc[nH]c12,survivor count,[2],0 of 10
CCc1nc(N)nc(N)c1-c1ccc(Cl)cc1,survivor count,[5],6 of 10
CN(C)c1ncnc2c1ncn2C1OC(CO)C(N)C1O (configuration not stated),survivor count,"dose: 40.0 mg/kg/injection, schedule: Q01DX011 (ip), vehicle: saline",5 of 10
CN(C)C1C(=O)C(C(N)=O)=C(O)C2(O)C(=O)C3=C(O)c4c(O)cccc4C(C)(O)C3C(O)C12 (configuration not stated),survivor count,"dose: 175.0 mg/kg/injection, schedule: Q02DX006 (ip), vehicle: water",3 of 10
CCCCn1cnc2c(SSc3ncnc4c3ncn4CCCC)ncnc21,survivor count,"dose: 60.0 mg/kg/injection, schedule: Q01DX011 (ip), vehicle: saline",5 of 10
same,survivor count,"dose: 120.0 mg/kg/injection, schedule: Q01DX011 (ip), vehicle: saline",0 of 10
same,survivor count,"dose: 240.0 mg/kg/injection, schedule: Q01DX011 (ip), vehicle: saline",0 of 10
N=[N+]=CC(=O)OCC(N)C(=O)O (configuration not stated),survivor count,"dose: 4.0 mg/kg/injection, schedule: Q01DX011 (ip), vehicle: saline",6 of 10
same,survivor count,"dose: 6.0 mg/kg/injection, schedule: Q01DX011 (ip), vehicle: saline",5 of 10
same,survivor count,"dose: 8.0 mg/kg/injection, schedule: Q01DX011 (ip), vehicle: saline",5 of 10
NNc1nc2nc[nH]c2c(=O)[nH]1,survivor count,[6],2 of 10
Nc1ncnc2n[nH]nc12,survivor count,"dose: 50.0 mg/kg/injection, schedule: Q01DX011 (ip), vehicle: saline",5 of 10
same,survivor count,[5],0 of 10
same,survivor count,[6],0 of 10
O=c1[nH]cc(F)c(=O)[nH]1,survivor count,"dose: 30.0 mg/kg/injection, schedule: Q01DX011 (ip), vehicle: carboxymethylcellulose (CMC)",0 of 10
same,survivor count,"dose: 40.0 mg/kg/injection, schedule: Q01DX011 (ip), vehicle: carboxymethylcellulose (CMC)",0 of 10
Oc1ccc2ccccc2c1N=Nc1ccc(F)cc1,survivor count,[6],5 of 10
same,survivor count,"dose: 200.0 mg/kg/injection, schedule: Q01DX011 (ip), vehicle: saline",1 of 10
same,survivor count,"dose: 600.0 mg/kg/injection, schedule: Q01DX011 (ip), vehicle: saline",5 of 10
CS(=O)(=O)OCCCOS(C)(=O)=O,survivor count,"dose: 60.0 mg/kg/injection, schedule: Q01DX011 (ip), vehicle: methylcellulose (MC)",5 of 10
O=CNC(Cc1ccc(N(CCCl)CCCl)cc1)C(=O)O (configuration not stated),survivor count,"dose: 160.0 mg/kg/injection, schedule: Q01DX011 (ip), vehicle: carboxymethylcellulose (CMC)",0 of 10
same,survivor count,"dose: 320.0 mg/kg/injection, schedule: Q01DX011 (ip), vehicle: carboxymethylcellulose (CMC)",0 of 10
CSc1nc2nc[nH]c2c(=O)[nH]1,T/C,"dose: 75.0 mg/kg/injection, schedule: Q01DX011 (ip), vehicle: carboxymethylcellulose (CMC)",131 % of control
c1cn[nH]c1,T/C,"dose: 16.0 mg/kg/injection, schedule: Q01DX006 (iv), vehicle: saline",133 % of control
same,survivor count,"dose: 100.0 mg/kg/injection, schedule: Q01DX011 (oral), vehicle: saline",3 of 10
